The values that follow come from article doi:10.1101/542068.

The data set deals with PSHCP1-62. As to the kind of experiment: competition with a labelled probe. As to conditions: ITC, equimolar dsGCDNA does not compete with tRNA, 25 mM NaCl, 75 mM KCl.

For at least one entry, the source does not settle the construct or the ends of the probe. A negative result means that nothing was seen under these conditions.

For CCGCGCGCGCGG (double strand) [dsGCDNA], the binding result is “no binding”.
